{"source": "paper PMC4089491", "about": "“BuD, a helix–loop–helix DNA-binding domain for genome modification”", "target": "T1, BurrH (Burkholderia rhizoxinica) (UniProt E5AV36)", "T1 sequence (looked up, limits assumed)": "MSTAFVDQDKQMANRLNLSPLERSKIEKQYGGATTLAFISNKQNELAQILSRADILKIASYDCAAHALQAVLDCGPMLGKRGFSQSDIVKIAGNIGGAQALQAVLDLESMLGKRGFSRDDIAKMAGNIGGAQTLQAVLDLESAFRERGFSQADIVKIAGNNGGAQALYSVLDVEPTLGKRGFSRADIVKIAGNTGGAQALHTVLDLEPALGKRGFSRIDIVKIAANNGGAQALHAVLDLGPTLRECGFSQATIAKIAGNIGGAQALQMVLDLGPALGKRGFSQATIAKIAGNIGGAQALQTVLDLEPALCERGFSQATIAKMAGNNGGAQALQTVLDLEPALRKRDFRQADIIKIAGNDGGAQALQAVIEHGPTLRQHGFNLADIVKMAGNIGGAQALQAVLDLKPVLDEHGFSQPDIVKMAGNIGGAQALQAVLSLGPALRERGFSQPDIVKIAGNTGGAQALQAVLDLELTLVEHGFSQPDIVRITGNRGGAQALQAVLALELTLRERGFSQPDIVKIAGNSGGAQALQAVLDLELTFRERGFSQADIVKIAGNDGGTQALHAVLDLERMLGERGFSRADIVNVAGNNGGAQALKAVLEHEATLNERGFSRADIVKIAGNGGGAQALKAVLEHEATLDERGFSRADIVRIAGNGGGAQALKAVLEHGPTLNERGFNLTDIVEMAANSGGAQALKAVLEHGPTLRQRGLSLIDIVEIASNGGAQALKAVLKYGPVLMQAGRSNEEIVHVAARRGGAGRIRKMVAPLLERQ", "experiment": "ITC", "conditions": "FA and ITC: 25 mM HEPES pH 8, 150 mM NaCl, 0.2 mM TCEP, 298 K, recombinant protein", "note": "Construct, isoform or probe ends are uncertain for at least one entry. A negative result means that nothing was seen under these conditions. Protein sequences can lack the tags named with them."}
{"sequence": "TTAAGAGAAGCAAATACGTTATA [BurrH target ssDNA]", "values": [{"measurement": "binding result", "setting": "single-stranded DNA", "value": "no binding"}]}
{"sequence": "UUAAGAGAAGCAAAUACGUUAUA / UAUAACGUAUUUGCAACUCUUAA [BurrH target RNA duplex]", "values": [{"measurement": "binding result", "value": "no binding"}]}
